US20230035403A1, “Method For Determining Responsiveness To Prostate Cancer Treatment” (Janssen Biotech, Inc., priority 2020, published 2023)
What was measured is the transcript of the gene that encodes the chain shown.

Experiment: Expression profiling of prostate neoantigens in tumor and normal tissues (qPCR, Fluidigm Biomark)
Set-up: species or system human
Conditions: for qPCR Relative Average Ct: FFPE prostate cancer samples; for qPCR % Positive FFPE: about 90 FFPE tissue samples from prostate cancer; for qPCR Normal Tissue Expression: panel of normal tissues

| Sequence | qPCR Relative Average Ct | qPCR % Positive FFPE [%] | qPCR Normal Tissue Expression |
| --- | --- | --- | --- |
| CEERGAAGSLISCE [FUS6] | 11 | 19 | None |
| CGASACDVSLIAMDSA [FUS1] | 9 | 72 | Prostate |
| DGHSYTSKVNCLLLQDGFHGCVSITGAAGRRNLSIFLFLMLCKLEFHAC [AS55] | 8.2 | 83.3 | Prostate |
| DYWAQKEKGSSSFLRPSC [AS7] | 11.0 | 57.8 | None |
| DYWAQKEKISIPRTHLC [AS6] | 10.0 | 33.3 | None |
| EAFQRAAGEGGPGRGGARRGARVLQSPFCRAGAGEWLGHQSLR [AS41] | 11.6 | 45.6 | Ovary |
| FKKFDGPCGERGGGRTARALWARGDSVLTPALDPQTPVRAPSLTRAAAAV [AS47] | 12.3 | 16.7 | Ovary |
| GMECTLGQVGAPSPRREEDGWRGGHSRFKADVPAPQGPCWGGQPGSAPSSAPPEQSLLD [AS51] | 10.5 | 47.8 | Ovary |
| GNTTLQQLGEASQAPSGSLIPLRLPLLWEVRG [AS16] | 10.8 | 47.8 | Ovary |
| GVPGDSTRRAVRRMNTF [Neoantigen P16] | 9 | 76 | Prostate |
| HVVGYGHLDTSGSSSSSSWP [FUS15] | 13 | 8 | None |
| HYKLIQQPISLFSITDRLHKTFSQLPSVHLCSITFQWGHPPIFCSTNDICVTANFCISVTFLKPCFLLHEASASQ [MS1] | – | – | None |
| KIQNKNCPD [AS23] | 13.0 | 22.0 | Ovary, Prostate, |
| KMHFSLKEHPPPPCPP [FUS19] | 13 | 4 | None |
| KRSFAVTERII [AS13] | 11.1 | 21.1 | None |
| LVLGVLSGHSGSRL [AS8] | 12.5 | 13.3 | None |

| Sequence | qPCR Relative Average Ct | qPCR % Positive FFPE [%] | qPCR Normal Tissue Expression |
| --- | --- | --- | --- |
| NSKMALNSEALSVVSE [FUS5] | 7 | 14 | None |
| NSKMALNSLNSIDDAQLTRIAPPRSHCCFWEVNAP [Neoantigen P35] | 13 | 5 | None |
| QWQHYHRSGEAAGTPLWRPTRN [AS19] | 6.3 | 95.6 | Ovary, Prostate |
| RTALTHNQDFSIYRLCCKRGSLCHASQARSPAFPKPVRPLPAPITRITPQLGGQSDSSQPLLTTGRPQGWQDQALRHTQQASPASCATITIPIHSAALGDHSGDPGPAWDTCPPLPLTTLIPRAPPPYGDSTARSWPSRCGPLG [MS3] | – | – | None |
| SLYHREKQLIAMDSAI [Neoantigen P22] | 9 | 70 | Prostate |
| TEISCCTLSSEENEYLPRPEWQLQ [FUS3] | 11 | 43 | Prostate |
| TEYNQKLQVNQFSESK [FUS2] | 11 | 55 | Mammary Gland |
| TGGKSTCSAPGPQSLPSTPFSTYPQWVILITEL [AS57] | 7.9 | 83.3 | Prostate |
| TMPAILKLQKNCLLSL [MS8] | – | – | None |
| VAMMVPDRQVHYDFGL [AS3] | 10.8 | 26.7 | None |
| VLRFLDLKVRYLHS [AS15] | 11.4 | 68.9 | Ovary, Mammary |
| WKFEMSYTVGGPPPHVHARPRHWKTDR [AS18] | 6.3 | 95.6 | Ovary, Prostate |
| YAYKDFLWCFPFSLVFLQEIQICCHVSCLCCICCSTRICLGCLLELFLSRALRALHVLWNGFQLHCQ [MS6] | – | – | None |
| YEAGMTLGEKFRVGNCKHLKMTRP [Neoantigen P82] | 11 | 37.0 | – |
| YEAGMTLGGKILFFLFLLLPLSPFSLIF [Neoantigen P87] | 8.3 | 85.6 | Ovary, Prostate |
